No constants are given. Whether binding was seen depends on the method and setting. In cells and extracts the contact can be indirect. Some binding calls cover weakened binding; strength is not graded here.

Protein sequences, listed by entry. Tags and fused reporters are not part of them.
UniProt P01108: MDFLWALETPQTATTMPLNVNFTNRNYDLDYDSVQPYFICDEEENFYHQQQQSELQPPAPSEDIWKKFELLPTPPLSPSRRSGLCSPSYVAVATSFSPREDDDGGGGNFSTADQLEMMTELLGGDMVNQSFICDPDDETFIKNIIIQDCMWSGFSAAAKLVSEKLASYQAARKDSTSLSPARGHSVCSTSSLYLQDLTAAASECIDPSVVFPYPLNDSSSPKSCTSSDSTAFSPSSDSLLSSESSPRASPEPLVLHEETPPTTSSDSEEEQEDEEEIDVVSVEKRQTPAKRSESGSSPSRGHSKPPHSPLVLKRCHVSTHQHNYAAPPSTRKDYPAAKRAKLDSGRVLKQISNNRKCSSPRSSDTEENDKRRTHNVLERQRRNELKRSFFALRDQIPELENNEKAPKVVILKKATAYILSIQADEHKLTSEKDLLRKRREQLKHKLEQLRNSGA
UniProt Q8VBV4: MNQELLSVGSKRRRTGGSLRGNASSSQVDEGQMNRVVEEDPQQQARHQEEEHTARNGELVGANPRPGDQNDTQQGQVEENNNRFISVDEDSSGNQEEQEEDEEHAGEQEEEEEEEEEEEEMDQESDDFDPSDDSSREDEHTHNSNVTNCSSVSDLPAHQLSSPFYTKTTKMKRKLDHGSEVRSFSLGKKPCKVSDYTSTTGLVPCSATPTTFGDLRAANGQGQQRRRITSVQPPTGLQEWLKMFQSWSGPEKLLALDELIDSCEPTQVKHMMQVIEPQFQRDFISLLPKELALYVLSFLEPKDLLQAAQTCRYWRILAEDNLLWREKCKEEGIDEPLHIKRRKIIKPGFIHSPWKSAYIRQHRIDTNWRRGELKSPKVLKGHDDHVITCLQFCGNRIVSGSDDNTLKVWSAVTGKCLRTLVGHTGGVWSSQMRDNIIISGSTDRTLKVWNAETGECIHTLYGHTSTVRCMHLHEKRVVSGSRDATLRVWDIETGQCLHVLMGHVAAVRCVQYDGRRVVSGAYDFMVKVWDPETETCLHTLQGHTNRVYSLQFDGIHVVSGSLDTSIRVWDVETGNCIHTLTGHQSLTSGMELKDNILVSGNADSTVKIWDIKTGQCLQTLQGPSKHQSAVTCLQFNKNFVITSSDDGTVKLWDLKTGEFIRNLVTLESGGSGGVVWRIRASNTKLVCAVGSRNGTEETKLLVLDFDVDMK

This assay has as its target c-Myc (Myc) (mouse (endogenous in RAW264.7)) (UniProt P01108). Briefly: co-IP; MG-132 (5 uM) pretreated RAW264.7 cells stimulated with 2 uM EST12 protein for 0, 1 or 12 h; RIPA lysate; 3 ug anti-Myc antibody and protein A/G beads at 4°C overnight; Western blot for Myc and FBW7.

For “E3 ubiquitin ligase FBW7 (from UniProt Q8VBV4 1-710)”, the binding entry is given as “binds”.

The values are drawn from paper PMC9393728.
